Laboratory results reported in the supplement of paper PMC8920030.
The source gives many values for each of these; only a part stands here. Where a SMILES comes first, the peptide text is derived from it. Bridges are numbered along the chain shown (N, C = ends). [ ]: non-standard residue; d: D form. The star is where a group is joined. Heptanoyl(5-Me) = CCC(C)CCCC(=O)*; Dab = NCC[C@H](N)C(=O)O

Columns and labels:
Settings in all cases: growth mode: biofilm, 24 h; exposure time: 24 h
[1] = compound: T1, NC[C@H]1O[C@H](O[C@H]2[C@H](O)[C@@H](O[C@H]3O[C@H](CO)[C@@H](O)[C@H](N)[C@H]3O)[C@H](N)C[C@@H]2N)[C@H](N)C[C@@H]1O [tobramycin]; assay: minimum concentration eradicating biofilm below detection limit (MCK-E); higher = more biofilm tolerance
Description: (§1)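 Clinical P. aeruginosa isolates were grown as static biofilms for 24 h at 37 °C in LB in half-area 96-well plates, then exposed for 24 h to tobramycin at 1, 4, 16, 64, 256 or […]. Surviving CFU were counted by spotting serial dilutions. MCK is the lowest tested concentration giving the stated log reduction in CFU versus an untreated control; '>1024' means the reduction was not reached at the top dose, and 1 is the lowest dose tested (≤1).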

[2] = compound: T2, CCC(C)CCCC(=O)N[C@@H](CCN)C(=O)N[C@H](C(=O)N[C@@H](CCN)C(=O)N[C@H]1CCNC(=O)[C@H]([C@@H](C)O)NC(=O)[C@H](CCN)NC(=O)[C@H](CCN)NC(=O)[C@H](CC(C)C)NC(=O)[C@@H](CC(C)C)NC(=O)[C@H](CCN)NC1=O)[C@@H](C)O [colistin]; assay: as above
Description: (§2)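 Clinical P. aeruginosa isolates were grown as static biofilms for 24 h at 37 °C in LB in half-area 96-well plates, then exposed for 24 h to colistin at 1, 4, 16, 64, 256 or […]. Surviving CFU were counted by spotting serial dilutions. MCK is the lowest tested concentration giving the stated log reduction in CFU versus an untreated control; '>1024' means the reduction was not reached at the top dose, and 1 is the lowest dose tested (≤1).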

[3] = compound: T1, tobramycin; assay: minimum concentration of killing, 2-log CFU reduction of biofilm (MCK99); higher = more biofilm tolerance
Description: as §1

[4] = compound: T2, colistin; assay: minimum concentration of killing, 1-log CFU reduction of biofilm (MCK90); higher = more biofilm tolerance
Description: as §2

[5] = compound: T1, tobramycin; assay: as above
Description: as §1

[6] = compound: T2, colistin; assay: minimum concentration of killing, 2-log CFU reduction of biofilm (MCK99); higher = more biofilm tolerance
Description: as §2

[7] = compound: T2, colistin; assay: minimum concentration of killing, 4-log CFU reduction of biofilm (MCK99.99); higher = more biofilm tolerance
Description: as §2

[8] = compound: T1, tobramycin; assay: as above
Description: as §1

Test System | minimum concentration eradicating biofilm below detection limit [1] | minimum concentration eradicating biofilm below detection limit [2] | minimum concentration of killing [3] | minimum concentration of killing [4] | minimum concentration of killing [5] | minimum concentration of killing [6] | minimum concentration of killing [7] | minimum concentration of killing [8]
Pseudomonas aeruginosa clinical isolate MHH17546 | > 1020 µg/mL | 64 µg/mL | 64 µg/mL | 16 µg/mL | ≤ 1 µg/mL | 64 µg/mL | 64 µg/mL | 1020 µg/mL
Pseudomonas aeruginosa clinical isolate ZG302367 | 256 µg/mL | 256 µg/mL | 64 µg/mL | 256 µg/mL | 4 µg/mL | 256 µg/mL | 256 µg/mL | 256 µg/mL
Pseudomonas aeruginosa clinical isolate CH4446 | 256 µg/mL | 256 µg/mL | 64 µg/mL | 64 µg/mL | 16 µg/mL | 64 µg/mL | 256 µg/mL | 256 µg/mL
Pseudomonas aeruginosa clinical isolate CH3484 | 256 µg/mL | 256 µg/mL | 64 µg/mL | 256 µg/mL | 16 µg/mL | 256 µg/mL | 256 µg/mL | 64 µg/mL
Pseudomonas aeruginosa clinical isolate MHH15151 | 64 µg/mL | 256 µg/mL | 16 µg/mL | 256 µg/mL | 16 µg/mL | 256 µg/mL | 256 µg/mL | 64 µg/mL
Pseudomonas aeruginosa clinical isolate F2205 | > 1020 µg/mL | 256 µg/mL | 64 µg/mL | 64 µg/mL | 16 µg/mL | 256 µg/mL | 256 µg/mL | 1020 µg/mL
Pseudomonas aeruginosa clinical isolate F2235 | > 1020 µg/mL | 256 µg/mL | 1020 µg/mL | 256 µg/mL | 256 µg/mL | 256 µg/mL | 256 µg/mL | > 1020 µg/mL
Pseudomonas aeruginosa clinical isolate MD9965_2 | 256 µg/mL | 256 µg/mL | ≤ 1 µg/mL | 64 µg/mL | ≤ 1 µg/mL | 64 µg/mL | 256 µg/mL | 64 µg/mL
Pseudomonas aeruginosa clinical isolate MD9965_1 | 64 µg/mL | 256 µg/mL | ≤ 1 µg/mL | 256 µg/mL | ≤ 1 µg/mL | 256 µg/mL | 256 µg/mL | 16 µg/mL
Pseudomonas aeruginosa clinical isolate PSAE1837 | 1020 µg/mL | 64 µg/mL | 64 µg/mL | 64 µg/mL | 4 µg/mL | 64 µg/mL | 64 µg/mL | 1020 µg/mL
Pseudomonas aeruginosa clinical isolate CH4891 | 1020 µg/mL | 256 µg/mL | 4 µg/mL | 256 µg/mL | 4 µg/mL | 256 µg/mL | 256 µg/mL | 1020 µg/mL
Pseudomonas aeruginosa clinical isolate ZG301975 | 256 µg/mL | 256 µg/mL | 16 µg/mL | 64 µg/mL | ≤ 1 µg/mL | 64 µg/mL | 256 µg/mL | 64 µg/mL
Pseudomonas aeruginosa clinical isolate ZG302432 | 256 µg/mL | 256 µg/mL | 4 µg/mL | 64 µg/mL | 4 µg/mL | 64 µg/mL | 256 µg/mL | 256 µg/mL
Pseudomonas aeruginosa clinical isolate MHH16371 | 256 µg/mL | 256 µg/mL | 16 µg/mL | 64 µg/mL | 16 µg/mL | 64 µg/mL | 256 µg/mL | 256 µg/mL
Pseudomonas aeruginosa clinical isolate MD10010 | 256 µg/mL | 256 µg/mL | 16 µg/mL | 64 µg/mL | 16 µg/mL | 64 µg/mL | 256 µg/mL | 256 µg/mL
Pseudomonas aeruginosa clinical isolate CH3325 | 256 µg/mL | 256 µg/mL | 64 µg/mL | 256 µg/mL | 4 µg/mL | 256 µg/mL | 256 µg/mL | 256 µg/mL
Pseudomonas aeruginosa clinical isolate CF592_Iso2 | 256 µg/mL | 256 µg/mL | 4 µg/mL | 64 µg/mL | 4 µg/mL | 256 µg/mL | 256 µg/mL | 64 µg/mL
Pseudomonas aeruginosa clinical isolate ZG302368 | 64 µg/mL | 256 µg/mL | 16 µg/mL | 64 µg/mL | 4 µg/mL | 256 µg/mL | 256 µg/mL | 64 µg/mL
Pseudomonas aeruginosa clinical isolate CH4602 | 256 µg/mL | 256 µg/mL | 16 µg/mL | 64 µg/mL | 16 µg/mL | 256 µg/mL | 256 µg/mL | 64 µg/mL
Pseudomonas aeruginosa clinical isolate MHH16727 | 1020 µg/mL | 256 µg/mL | 256 µg/mL | 256 µg/mL | 256 µg/mL | 256 µg/mL | 256 µg/mL | 1020 µg/mL

Test System | minimum concentration eradicating biofilm below detection limit [1] | minimum concentration eradicating biofilm below detection limit [2] | minimum concentration of killing [3] | minimum concentration of killing [4] | minimum concentration of killing [5] | minimum concentration of killing [6] | minimum concentration of killing [7] | minimum concentration of killing [8]
Pseudomonas aeruginosa clinical isolate CH4785 | 1020 µg/mL | 256 µg/mL | 64 µg/mL | 256 µg/mL | ≤ 1 µg/mL | 256 µg/mL | 256 µg/mL | 256 µg/mL
Pseudomonas aeruginosa clinical isolate CH2690 | 256 µg/mL | 1020 µg/mL | 16 µg/mL | 256 µg/mL | 16 µg/mL | 256 µg/mL | 256 µg/mL | 256 µg/mL
Pseudomonas aeruginosa clinical isolate F2160 | 1020 µg/mL | 64 µg/mL | ≤ 1 µg/mL | 64 µg/mL | ≤ 1 µg/mL | 64 µg/mL | 64 µg/mL | 1020 µg/mL
Pseudomonas aeruginosa clinical isolate CH2734 | 256 µg/mL | 256 µg/mL | 64 µg/mL | 64 µg/mL | ≤ 1 µg/mL | 256 µg/mL | 256 µg/mL | 256 µg/mL
Pseudomonas aeruginosa clinical isolate PSAE1401 | 256 µg/mL | 256 µg/mL | 16 µg/mL | 256 µg/mL | 4 µg/mL | 256 µg/mL | 256 µg/mL | 256 µg/mL
Pseudomonas aeruginosa clinical isolate PSAE2125 | 1020 µg/mL | 256 µg/mL | 64 µg/mL | 64 µg/mL | 16 µg/mL | 64 µg/mL | 64 µg/mL | 1020 µg/mL
Pseudomonas aeruginosa clinical isolate CH4990 | 256 µg/mL | 256 µg/mL | 16 µg/mL | 256 µg/mL | 4 µg/mL | 256 µg/mL | 256 µg/mL | 64 µg/mL
Pseudomonas aeruginosa clinical isolate M70565897 | 256 µg/mL | 256 µg/mL | 64 µg/mL | 256 µg/mL | 16 µg/mL | 256 µg/mL | 256 µg/mL | 256 µg/mL
Pseudomonas aeruginosa clinical isolate MD6439 | 256 µg/mL | 256 µg/mL | ≤ 1 µg/mL | 64 µg/mL | ≤ 1 µg/mL | 256 µg/mL | 256 µg/mL | 256 µg/mL
Pseudomonas aeruginosa clinical isolate MD1037 | 256 µg/mL | 256 µg/mL | 4 µg/mL | 64 µg/mL | ≤ 1 µg/mL | 256 µg/mL | 256 µg/mL | 256 µg/mL
Pseudomonas aeruginosa clinical isolate MHH15817 | 256 µg/mL | 256 µg/mL | 64 µg/mL | ≤ 1 µg/mL | ≤ 1 µg/mL | 256 µg/mL | 256 µg/mL | 256 µg/mL
Pseudomonas aeruginosa clinical isolate CH3290 | > 1020 µg/mL | 256 µg/mL | 1020 µg/mL | 64 µg/mL | 256 µg/mL | 256 µg/mL | 256 µg/mL | 1020 µg/mL
Pseudomonas aeruginosa clinical isolate MD9121 | 64 µg/mL | 256 µg/mL | 16 µg/mL | 256 µg/mL | 16 µg/mL | 256 µg/mL | 256 µg/mL | 16 µg/mL
Pseudomonas aeruginosa clinical isolate MHH14911 | 1020 µg/mL | 256 µg/mL | 256 µg/mL | 256 µg/mL | 64 µg/mL | 256 µg/mL | 256 µg/mL | 1020 µg/mL
Pseudomonas aeruginosa clinical isolate CH2502 | 256 µg/mL | 256 µg/mL | 16 µg/mL | 16 µg/mL | 4 µg/mL | 64 µg/mL | 256 µg/mL | 64 µg/mL
Pseudomonas aeruginosa clinical isolate MHH16427 | 1020 µg/mL | 256 µg/mL | 16 µg/mL | 256 µg/mL | 4 µg/mL | 256 µg/mL | 256 µg/mL | 256 µg/mL
Pseudomonas aeruginosa clinical isolate ZG5003493 | 1020 µg/mL | 256 µg/mL | 4 µg/mL | 16 µg/mL | ≤ 1 µg/mL | 64 µg/mL | 256 µg/mL | 64 µg/mL
Pseudomonas aeruginosa clinical isolate CH4840 | 256 µg/mL | 256 µg/mL | 4 µg/mL | 64 µg/mL | 4 µg/mL | 256 µg/mL | 256 µg/mL | 64 µg/mL
Pseudomonas aeruginosa clinical isolate ZG205694 | 1020 µg/mL | 256 µg/mL | 256 µg/mL | 256 µg/mL | 64 µg/mL | 256 µg/mL | 256 µg/mL | 1020 µg/mL
Pseudomonas aeruginosa clinical isolate MD8034 | 16 µg/mL | 256 µg/mL | 16 µg/mL | 64 µg/mL | ≤ 1 µg/mL | 64 µg/mL | 256 µg/mL | 16 µg/mL
